Laboratory results taken from patent US12643891B2, “SPAK/OSR inhibitors and methods of using same” (YALE UNIVERSITY, priority 2019, dated 2026).
For at least one compound, name, drawing or mass did not settle the structure.

System: primary GBM cells
Test: Nanogrooved pattern glioblastoma cell migration assay
Format: cell-based, human
Conditions: in vitro
Method: Cell culture: All primary cell lines were derived from intraoperative tissue samples from patients treated surgically for newly diagnosed glioblastoma multiforme without prior treatment. Primary cells were cultured in Dulbecco's Modified Eagle Medium: Nutrient Mixture F-12, B27 serum free supplement (Gibco), 20 ng/mL epidermal growth factor (EGF), and 20 ng/ml fibroblast-derived growth factor (FGF).
Nanogrooved pattern cell migration assay: Migration of glioma cells was quantified using a novel directional migration assay using nano-ridges/grooves of 400 nm in groove width, 400 nm in ridge width, and 500 nm in depth, constructed of transparent poly(urethane acrylate) (PUA), and fabricated using UV-assisted capillary lithography (Kim & Eberwine, 2010, Anal. Bioanl. Chem. 397:3173-3178). Cells were cultured on glass covered with a nanogrooved pattern substratum, which was previously glued onto the bottom surface of the custom-made Mat-tek dish (P35G-20-C). […] Cell migration was quantified using time-lapse microscopy using a motorized inverted microscope (Olympus IX81) equipped with a Cascade 512B II CCD camera and temperature and gas controlling environmental chamber. Phase-contrast and epi-fluorescent cell images were automatically recorded under 4*1.6× objective using the Slidebook 4.1 (Intelligent Imaging Innovations, Denver, CO) for 10 hours at 10 minute intervals. […]

With `Cn1nnc2c(C(N)=O)ncn2c1=O` [TMZ, temozolomide, reference compound] the “migration of primary GBM cells” value was “does not”.
